PubChem BioAssay AID686938 – Drosophila RNAi Screening Center, 2013
Test: 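Looking for CRAC channel components and the factors controlling them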 (primary screen). Cells: Drosophila S2R+ cells. Reagent: long dsRNA against Drosophila genes, about 0.25 µg dsRNA per well, roughly 10,000 cells. Duration: 5 days of knock-down before the calcium assay. Treatment: thapsigargin (SERCA pump blocker) to empty calcium stores; entry signal taken 4 min after adding it. Measurement: 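Per-well fluo-4 fluorescence in two replicates, unnormalised, measured in resting cells and 4 min after store depletion by the SERCA blocker thapsigargin; ratio of the two present in few wells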. Scale: calcium entry signal: higher = stronger calcium signal after store depletion; resting calcium signal: higher = higher resting calcium signal. Hit rule: 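Hit if the duplicate-averaged plate z-score for entry over resting signal is under −3; wells with weak total dye signal (Fmax z < −2) or more than 5 off-targets removed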. Meaning of the calls: active = strongly reduced calcium entry; inactive = no strong reduction.
In all, the deposit lists about 23,000 reagents; below is a random part of those that have a named target and a result. Of all reagents, 75 (0.33%) got an active call. 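Raw plate signals without normalisation; calls rest on plate z-scores that were not deposited; ratio present for only 364 wells.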 Not given: the dose of the treatment.

no.	target	DRSC id	calcium entry signal, replicate 1 (fluorescence units)	calcium entry signal, replicate 2 (fluorescence units)	resting calcium signal, replicate 1 (fluorescence units)	resting calcium signal, replicate 2 (fluorescence units)	activity call
1	CG6701	DRSC07007	3.62e7	3.09e7	1.40e7	1.42e7	inactive
2	CG4955	DRSC19927	3.30e7	4.13e7	1.56e7	1.87e7	inactive
3	Fpgs2	DRSC00600	3.87e7	3.35e7	1.89e7	1.63e7	inactive
4	CG43134	DRSC17318	4.78e7	3.53e7	2.36e7	1.54e7	inactive
5	lft	DRSC02236	3.28e7	4.58e7	1.58e7	1.85e7	inactive
6	Sec61beta	DRSC07548	3.02e7	2.89e7	1.94e7	1.53e7	inactive
7	Sec61beta	DRSC21512	3.73e7	3.22e7	2.22e7	2.13e7	inactive
8	SerRS	DRSC00496	3.70e7		1.71e7		inactive
9	CR33318	DRSC22949	2.38e7	3.77e7	1.20e7	1.44e7	inactive
10	CG14932	DRSC02414	3.23e7	4.36e7	1.91e7	1.93e7	inactive
11	Grl40a	DRSC03677	3.27e7	6.11e7	1.56e7	2.35e7	inactive
12	spirit	DRSC18202	2.92e7	3.27e7	1.37e7	1.52e7	inactive
13	Rdl	DRSC08967	5.06e7	5.05e7	2.40e7	2.21e7	inactive
14	Rdl	DRSC11264	5.68e7	5.07e7	3.76e7	2.04e7	inactive
15	Oscillin	DRSC03001	4.75e7	3.75e7	2.53e7	1.87e7	inactive
16	kto	DRSC10983	3.41e7	3.84e7	1.63e7	2.55e7	inactive
17	CG8245	DRSC04901	4.62e7	2.27e7	2.37e7	1.16e7	inactive
18	Sbf	DRSC16852	3.74e7	3.77e7	1.78e7	1.87e7	inactive
19	CG12945	DRSC14573	2.97e7	3.14e7	1.75e7	1.76e7	inactive
20	Mob2	DRSC09117	4.32e7	6.53e7	2.12e7	2.89e7	inactive
21	Mob2	DRSC09119	4.78e7	5.52e7	2.45e7	2.30e7	inactive
22	Mob2	DRSC09856	4.23e7	2.65e7	2.64e7	1.35e7	inactive
23	Mob2	DRSC23274	4.21e7	4.08e7	1.92e7	1.64e7	inactive
24	CR31824	DRSC01517	3.15e7	4.47e7	1.83e7	2.07e7	inactive

Looked up above.
Result of SerRS [DRSC00496] in “activity call”: inactive
Under “activity call”, lft [DRSC02236] is entered as inactive
